Record: PubChem BioAssay AID1259425 (University of Nebraska Medical Center, 2018)
Purpose: 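Find knockdowns that reproduce the gene expression pattern seen when KSR1 is lost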 (primary screen). Cells: HCT116 human colon cancer cells. Reagent: siRNA pool against human genes, 50 nM siRNA. Measurement: 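mRNA of six signature genes measured together by branched-DNA assay after 50 nM siRNA pool, blank removed, divided by geometric mean of two housekeeping genes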. Direction: BNIP3L mRNA: higher = more BNIP3L transcript after knockdown; NDRG1 mRNA: higher = more NDRG1 transcript after knockdown.
The whole screen tested about 14,000 reagents; shown is a part drawn at random. Further read-outs or replicates are left out here. The record does not give: the time to read-out.

TMCC3 [SID364001785] showed BNIP3L mRNA, set 1 = 0.106; NDRG1 mRNA, set 1 = 0.265. Against LOC51212 (retired record) [SID364000076] the deposit lists BNIP3L mRNA, set 1 = 0.0751; NDRG1 mRNA, set 1 = 0.196. Silencing of CD80 [SID363996116] came out at: BNIP3L mRNA, set 1 = 0.308; NDRG1 mRNA, set 1 = 0.622. Silencing of CCDC85C [SID364002522] resulted in: BNIP3L mRNA, set 1 = 0.131; NDRG1 mRNA, set 1 = 0.25. Against HEATR3 [SID364000660] the deposit lists BNIP3L mRNA, set 1 = 0.0942; NDRG1 mRNA, set 1 = 0.212. With knock-down of SCGB1D2 [SID363997343] the results were BNIP3L mRNA, set 1 = 0.0768; NDRG1 mRNA, set 1 = 0.345.

CD86 [SID363997646] scored BNIP3L mRNA, set 1 = 0.0516; NDRG1 mRNA, set 1 = 0.198. Silencing of KCNJ2 [SID363992176] resulted in: BNIP3L mRNA, set 1 = 0.0761; NDRG1 mRNA, set 1 = 0.253. With knock-down of PIGP [SID364004780], the screen gave BNIP3L mRNA, set 1 = 0.092; NDRG1 mRNA, set 1 = 0.18. After knock-down of TPBG [SID363997456], the screen gave BNIP3L mRNA, set 1 = 0.0728; NDRG1 mRNA, set 1 = 0.317. Against TNRC18 [SID364005576] the deposit lists BNIP3L mRNA, set 1 = 0.105; NDRG1 mRNA, set 1 = 0.769. For SUDS3 [SID364002476], the entry reads BNIP3L mRNA, set 1 = 0.339; NDRG1 mRNA, set 1 = 0.498.

For LCMT1 [SID363999795] the deposit lists BNIP3L mRNA, set 1 = 0.0501; NDRG1 mRNA, set 1 = 0.249. After knock-down of BPY2 [SID363995641], the screen gave BNIP3L mRNA, set 1 = 0.0944; NDRG1 mRNA, set 1 = 0.131. Against PFAS [SID363998279], the entry reads BNIP3L mRNA, set 1 = 0.0841; NDRG1 mRNA, set 1 = 0.4. For ZNF44 [SID363999992], the values are BNIP3L mRNA, set 1 = 0.0388; NDRG1 mRNA, set 1 = 0.0517. GPALPP1 [SID364001130] showed BNIP3L mRNA, set 1 = 0.0912; NDRG1 mRNA, set 1 = 0.154. For LDOC1 [SID363998227], the entry reads BNIP3L mRNA, set 1 = 0.087; NDRG1 mRNA, set 1 = 0.175.

Depletion of GAPVD1 [SID364005159] gave: BNIP3L mRNA, set 1 = 0.112; NDRG1 mRNA, set 1 = 0.503.

2 entries from above, sorted by “BNIP3L mRNA, set 1”, low to high:
LOC51212 (retired record) [SID364000076]: BNIP3L mRNA, set 1 = 0.0751; NDRG1 mRNA, set 1 = 0.196
CD80 [SID363996116]: BNIP3L mRNA, set 1 = 0.308; NDRG1 mRNA, set 1 = 0.622
